Data as given in PubChem BioAssay AID1508588 (Peter MacCallum Cancer Centre, 2020)

- Assay: 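Knock-downs boosting vemurafenib effects on melanoma cell growth or lactate release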 (primary screen)
- Cells: human WM266.4 melanoma cells (BRAF V600 mutant)
- Knock-down reagent: siRNA pool against human genes, 40 nM
- Timing: 96 h from transfection to read-out
- Challenge: vemurafenib 300 nM (about IC25), added 48 h after transfection, for 48 h; comparison arm got DMSO vehicle only
- Detection: 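Cell gain (DAPI nuclei at end minus before drug, mean of two replicates) and medium lactate by absorbance per cell, both as ratio to non-targeting siRNA, also grouped into fold-change classes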
- Reading the numbers: cell gain with vemurafenib: higher = more cell gain than with non-targeting siRNA; lactate per cell with vemurafenib: higher = more lactate made per cell
- Rule for the call: 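Enhancement is called by pairing each knock-down's vehicle-arm and drug-arm fold-change classes for viability or glycolysis; which class combinations qualify is not given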
- Calls: active = enhances vemurafenib effect; inactive = no enhancement seen
This is one part, drawn at random, of about 18,000 deposited reagents. Over the whole deposit, 790 (4.4%) got an active call. 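Calls rest on a combination of fold-change classes in drug and vehicle arms, not all shown here.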 Unmarked entries are inactive.

| target | cell gain with vemurafenib | lactate per cell with vemurafenib |
| --- | --- | --- |
| CFAP91 (GeneID 89876) | -0.08 (active) | 0.24 |
| SLF1 (GeneID 84250) | 0.32 | 0.86 |
| ABCA7 (GeneID 10347) | 1.24 | 0.84 |
| CPN1 (GeneID 1369) | 1.19 | 1.02 |
| MAMDC4 (GeneID 158056) | 0.85 | 2.13 |
| CLPTM1 (GeneID 1209) | 0.39 | 0.46 |
| COBL (GeneID 23242) | 0.24 | 1.77 |
| ADGRA2 (GeneID 25960) | 0.11 | 0.96 |
| SFRP4 (GeneID 6424) | 0.52 | 1.14 |
| EYA2 (GeneID 2139) | 0.7 | 0.55 |
| ART3 (GeneID 419) | 0.5 | 1.24 |
| CCDC51 (GeneID 79714) | 0.76 | 1.33 |
| INPP4B (GeneID 8821) | 0.58 (active) | 0.48 |
| EXD3 (GeneID 54932) | 0.4 | 1.83 |
| PARVB (GeneID 29780) | 0.55 | 0.9 |
| FAM149A (GeneID 25854) | 0.81 | 1.63 |
| KCNA3 (GeneID 3738) | 0.98 | 0.72 |
| LUZP4 (GeneID 51213) | 0.33 (active) | 0.3 |
| DENR (GeneID 8562) | 0.81 | 0.63 |
| SIRPB1 (GeneID 10326) | 0.53 | 0.77 |
| NDUFA1 (GeneID 4694) | 0.57 | 1.75 |
| TIPE3 (GeneID 388121) | 0.18 | 0.7 |
| CCDC70 (GeneID 83446) | 0.71 | 0.32 |
| TLR7 (GeneID 51284) | 0.47 | 2.17 |
| ST14 (GeneID 6768) | 0.55 | 1.25 |
| CDHR5 (GeneID 53841) | 0.76 | 1.01 |
| SLC24A5 (GeneID 283652) | 0.07 | 0.48 |
| ZFP91 (GeneID 80829) | 0.53 | 1.66 |
| COMT (GeneID 1312) | 0.15 | 1.96 |
| HNRNPUL2 (GeneID 221092) | 1.06 | 0.5 |
| CCT6A (GeneID 908) | 0.74 | 0.86 |
| TMEM260 (GeneID 54916) | 0.27 | 0.96 |
| ERVFRD-1 (GeneID 405754) | 0.78 | 0.26 |
| TMEM143 (GeneID 55260) | 0.65 | 1.12 |
| KLHL6 (GeneID 89857) | 0.62 | 1.32 |
| RFK (GeneID 55312) | 0.69 | 1.15 |
| ZNF833P (GeneID 401898) | 0.69 | 0.58 |
| DAPK3 (GeneID 1613) | 0.65 | 0.87 |
| LEPR (GeneID 3953) | 0.5 | 0.76 |
| ZNHIT3 (GeneID 9326) | 0.36 | 0.78 |
| GDA (GeneID 9615) | 0.61 | 0.82 |
| LDLRAD1 (GeneID 388633) | 0.65 | 1.23 |
| CDC42BPB (GeneID 9578) | 0.8 | 0.61 |
| OXTR (GeneID 5021) | 0.95 | 0.74 |
| TMEM200B (GeneID 399474) | 0.85 | 0.84 |
| TAFA3 (GeneID 284467) | 1.19 | 0.4 |
| KRT31 (GeneID 3881) | 0.33 | 1.8 |
| OR5T2 (GeneID 219464) | 0.78 | 0.52 |
| SLC25A2 (GeneID 83884) | 0.49 | 0.91 |
| RXFP4 (GeneID 339403) | 1.2 | 0.92 |

Sorted by “cell gain with vemurafenib” (low to high): some entries from above
| target | cell gain with vemurafenib | lactate per cell with vemurafenib |
| --- | --- | --- |
| EXD3 (GeneID 54932) | 0.4 | 1.83 |
| ART3 (GeneID 419) | 0.5 | 1.24 |
| PARVB (GeneID 29780) | 0.55 | 0.9 |
| INPP4B (GeneID 8821) | 0.58 (active) | 0.48 |
| CCDC51 (GeneID 79714) | 0.76 | 1.33 |
| FAM149A (GeneID 25854) | 0.81 | 1.63 |

The listing continues.
| target | cell gain with vemurafenib | lactate per cell with vemurafenib |
| --- | --- | --- |
| EEF1AKMT1 (GeneID 221143) | 0.17 | 1.98 |
| ECSCR (GeneID 641700) | 0.43 | 0.89 |
| ZNF37A (GeneID 7587) | 0.26 | 0.72 |
| ACHE (GeneID 43) | 0.67 | 0.79 |
| C9orf40 (GeneID 55071) | 0.45 | 1.76 |
| PWP1 (GeneID 11137) | 0.6 | 0.93 |
| OR2AE1 (GeneID 81392) | 0.83 | 0.64 |
| GPT2 (GeneID 84706) | 0.67 | 0.75 |
| TIPIN (GeneID 54962) | 0.18 | 1.38 |
| GEMIN5 (GeneID 25929) | 0.54 | 1.19 |
| OR51B2 (GeneID 79345) | 0.48 | 1 |
| SHTN1 (GeneID 57698) | 0.32 | 1.6 |
| GSS (GeneID 2937) | 0.19 | 0.85 |
| EHF (GeneID 26298) | 0.98 | 0.74 |
| HOOK1 (GeneID 51361) | 0.51 | 0.72 |
| IKZF5 (GeneID 64376) | 0.84 | 0.56 |
| MRPL16 (GeneID 54948) | 0.66 | 1.12 |
| DNAJC18 (GeneID 202052) | 0.89 | 0.6 |
| TONSL (GeneID 4796) | 0.62 | 0.58 |
| ADRM1 (GeneID 11047) | 0.38 | 0.62 |
| SEMA4B (GeneID 10509) | 0.69 | 0.77 |
| GAS7 (GeneID 8522) | 1.01 | 0.8 |
| CLASRP (GeneID 11129) | 0.04 (active) | 0.34 |
| SMC1A (GeneID 8243) | 0.24 | 0.82 |
| IDS (GeneID 3423) | 0.23 | 1.56 |
| GJB2 (GeneID 2706) | 0.61 | 1.28 |
| HNRNPAB (GeneID 3182) | 0.66 | 1.19 |
| COL10A1 (GeneID 1300) | 0.3 | 1.12 |
| COL5A2 (GeneID 1290) | 0.73 | 0.64 |
| TRMT2A (GeneID 27037) | 0.55 | 0.47 |
| MYOT (GeneID 9499) | 1.12 | 0.92 |
| OR4F6 (GeneID 390648) | 0.78 | 0.82 |
| SYT11 (GeneID 23208) | 0.3 | 1.95 |
| TMPRSS11F (GeneID 389208) | 0.66 | 0.66 |
